This note sets out measurements from the supplement of paper PMC12819154, “High-throughput peptide-centric local stability assay extends protein–ligand identification to membrane proteins, tissues and bacteria” (Nature Structural & Molecular Biology, 2025).

The chains behind the UniProt entries cited, without tags or fusion partners. Where a name states a change or a piece, a line headed by the entry shows the natural chain unless it says otherwise.
UniProt P31808: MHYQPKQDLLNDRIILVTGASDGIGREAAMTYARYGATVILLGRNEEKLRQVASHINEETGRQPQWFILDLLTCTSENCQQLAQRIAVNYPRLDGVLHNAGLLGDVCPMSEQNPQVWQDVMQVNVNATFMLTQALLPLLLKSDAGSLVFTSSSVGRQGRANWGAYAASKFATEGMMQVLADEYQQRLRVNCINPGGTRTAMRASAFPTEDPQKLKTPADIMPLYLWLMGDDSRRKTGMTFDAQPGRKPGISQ
UniProt P30014: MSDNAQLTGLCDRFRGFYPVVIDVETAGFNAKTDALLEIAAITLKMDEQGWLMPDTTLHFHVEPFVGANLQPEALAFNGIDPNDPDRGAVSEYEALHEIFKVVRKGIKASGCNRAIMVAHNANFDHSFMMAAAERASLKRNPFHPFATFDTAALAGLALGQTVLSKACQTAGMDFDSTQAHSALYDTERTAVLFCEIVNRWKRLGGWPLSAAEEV
UniProt P27300: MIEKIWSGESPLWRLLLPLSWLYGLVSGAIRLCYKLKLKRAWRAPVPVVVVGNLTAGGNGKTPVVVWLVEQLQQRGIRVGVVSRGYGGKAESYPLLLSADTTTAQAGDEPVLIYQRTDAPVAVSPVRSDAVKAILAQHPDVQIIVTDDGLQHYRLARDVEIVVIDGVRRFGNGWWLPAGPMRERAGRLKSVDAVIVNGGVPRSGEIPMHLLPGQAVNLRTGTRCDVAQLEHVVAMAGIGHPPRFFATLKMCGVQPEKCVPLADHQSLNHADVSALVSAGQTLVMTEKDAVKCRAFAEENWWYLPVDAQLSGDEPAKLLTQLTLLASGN
UniProt P28912: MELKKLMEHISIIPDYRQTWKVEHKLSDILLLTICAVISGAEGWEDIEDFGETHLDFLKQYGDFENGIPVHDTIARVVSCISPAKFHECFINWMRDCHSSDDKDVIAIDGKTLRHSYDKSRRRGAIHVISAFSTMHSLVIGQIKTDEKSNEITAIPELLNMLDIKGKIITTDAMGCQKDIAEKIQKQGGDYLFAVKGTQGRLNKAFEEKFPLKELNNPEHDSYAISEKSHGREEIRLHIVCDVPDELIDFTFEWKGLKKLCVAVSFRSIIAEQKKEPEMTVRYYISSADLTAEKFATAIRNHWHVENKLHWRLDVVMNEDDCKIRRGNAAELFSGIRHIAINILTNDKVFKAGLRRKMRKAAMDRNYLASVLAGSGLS
UniProt P33354: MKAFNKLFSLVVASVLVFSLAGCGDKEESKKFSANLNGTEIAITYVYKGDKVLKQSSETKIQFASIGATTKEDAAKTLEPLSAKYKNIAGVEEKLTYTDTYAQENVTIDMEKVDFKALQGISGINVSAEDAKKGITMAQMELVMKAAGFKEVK
UniProt P33230: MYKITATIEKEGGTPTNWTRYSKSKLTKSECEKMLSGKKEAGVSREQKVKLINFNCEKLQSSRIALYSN
UniProt P24192: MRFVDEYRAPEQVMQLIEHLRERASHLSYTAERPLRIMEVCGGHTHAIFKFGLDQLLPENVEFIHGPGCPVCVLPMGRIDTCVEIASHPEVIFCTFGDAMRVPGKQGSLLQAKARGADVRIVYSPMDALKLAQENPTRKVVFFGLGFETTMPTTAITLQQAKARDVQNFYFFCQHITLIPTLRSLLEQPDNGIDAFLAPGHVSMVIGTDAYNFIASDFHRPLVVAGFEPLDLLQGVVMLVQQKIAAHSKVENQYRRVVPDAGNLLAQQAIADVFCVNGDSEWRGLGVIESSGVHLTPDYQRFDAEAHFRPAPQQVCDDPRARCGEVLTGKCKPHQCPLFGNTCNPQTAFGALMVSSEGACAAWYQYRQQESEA
UniProt P27862: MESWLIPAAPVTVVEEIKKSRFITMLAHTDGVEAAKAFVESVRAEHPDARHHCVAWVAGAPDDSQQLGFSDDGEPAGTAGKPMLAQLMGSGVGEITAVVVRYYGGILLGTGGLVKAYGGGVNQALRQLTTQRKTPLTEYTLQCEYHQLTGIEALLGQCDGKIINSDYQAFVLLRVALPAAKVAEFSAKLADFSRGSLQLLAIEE
UniProt P32684: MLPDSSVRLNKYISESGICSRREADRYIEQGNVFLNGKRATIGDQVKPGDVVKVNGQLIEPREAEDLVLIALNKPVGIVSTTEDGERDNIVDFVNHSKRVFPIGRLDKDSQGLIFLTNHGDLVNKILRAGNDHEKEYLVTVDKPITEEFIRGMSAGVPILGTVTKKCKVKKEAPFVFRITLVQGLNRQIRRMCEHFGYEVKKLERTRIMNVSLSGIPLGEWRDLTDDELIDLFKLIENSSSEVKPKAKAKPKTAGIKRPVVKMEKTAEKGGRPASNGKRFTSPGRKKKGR
UniProt P30958: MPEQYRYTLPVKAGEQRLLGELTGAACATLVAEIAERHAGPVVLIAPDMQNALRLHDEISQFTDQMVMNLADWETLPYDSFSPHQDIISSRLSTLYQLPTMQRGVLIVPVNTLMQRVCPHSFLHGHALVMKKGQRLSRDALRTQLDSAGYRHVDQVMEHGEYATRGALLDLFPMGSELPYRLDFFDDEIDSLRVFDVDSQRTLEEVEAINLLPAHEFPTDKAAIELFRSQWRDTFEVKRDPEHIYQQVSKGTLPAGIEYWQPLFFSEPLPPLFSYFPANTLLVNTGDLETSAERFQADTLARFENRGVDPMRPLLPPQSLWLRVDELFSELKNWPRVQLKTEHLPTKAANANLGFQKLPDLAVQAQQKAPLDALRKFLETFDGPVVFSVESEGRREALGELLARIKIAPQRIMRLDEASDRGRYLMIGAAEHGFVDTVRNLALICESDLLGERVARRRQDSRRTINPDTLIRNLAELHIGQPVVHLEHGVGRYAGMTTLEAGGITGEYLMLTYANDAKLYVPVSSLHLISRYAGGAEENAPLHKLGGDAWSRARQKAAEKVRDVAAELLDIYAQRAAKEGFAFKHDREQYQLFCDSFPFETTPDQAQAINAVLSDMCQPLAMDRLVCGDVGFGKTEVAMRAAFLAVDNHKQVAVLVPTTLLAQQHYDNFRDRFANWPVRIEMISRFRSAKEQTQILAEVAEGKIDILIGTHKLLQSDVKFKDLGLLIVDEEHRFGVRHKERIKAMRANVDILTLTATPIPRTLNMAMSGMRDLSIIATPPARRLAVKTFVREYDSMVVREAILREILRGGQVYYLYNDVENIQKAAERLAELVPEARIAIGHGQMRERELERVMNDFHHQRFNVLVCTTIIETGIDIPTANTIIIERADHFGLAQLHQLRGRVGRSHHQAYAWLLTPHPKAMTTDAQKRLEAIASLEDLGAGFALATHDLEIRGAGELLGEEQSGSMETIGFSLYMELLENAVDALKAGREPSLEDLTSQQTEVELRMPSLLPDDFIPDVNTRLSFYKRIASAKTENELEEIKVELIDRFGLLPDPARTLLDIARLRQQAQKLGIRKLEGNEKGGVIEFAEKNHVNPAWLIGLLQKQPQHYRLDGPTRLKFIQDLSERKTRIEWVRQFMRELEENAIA
UniProt P24180: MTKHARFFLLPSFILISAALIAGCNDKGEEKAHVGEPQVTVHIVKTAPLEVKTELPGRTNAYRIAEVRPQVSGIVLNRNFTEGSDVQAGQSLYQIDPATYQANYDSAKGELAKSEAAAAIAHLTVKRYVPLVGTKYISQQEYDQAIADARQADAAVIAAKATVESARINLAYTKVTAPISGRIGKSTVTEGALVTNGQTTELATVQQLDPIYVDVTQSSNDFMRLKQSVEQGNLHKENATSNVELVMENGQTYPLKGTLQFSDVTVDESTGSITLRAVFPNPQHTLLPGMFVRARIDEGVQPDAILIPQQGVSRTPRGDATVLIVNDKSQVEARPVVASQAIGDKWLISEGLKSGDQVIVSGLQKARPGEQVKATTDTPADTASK
UniProt P32141: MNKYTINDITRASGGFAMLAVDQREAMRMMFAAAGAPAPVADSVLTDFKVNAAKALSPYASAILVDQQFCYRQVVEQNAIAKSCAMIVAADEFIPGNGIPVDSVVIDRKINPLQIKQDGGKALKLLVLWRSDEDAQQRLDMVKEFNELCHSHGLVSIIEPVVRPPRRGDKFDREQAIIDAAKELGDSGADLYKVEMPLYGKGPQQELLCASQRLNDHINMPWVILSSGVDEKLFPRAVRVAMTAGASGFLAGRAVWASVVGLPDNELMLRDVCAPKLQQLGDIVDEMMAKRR
UniProt P33020: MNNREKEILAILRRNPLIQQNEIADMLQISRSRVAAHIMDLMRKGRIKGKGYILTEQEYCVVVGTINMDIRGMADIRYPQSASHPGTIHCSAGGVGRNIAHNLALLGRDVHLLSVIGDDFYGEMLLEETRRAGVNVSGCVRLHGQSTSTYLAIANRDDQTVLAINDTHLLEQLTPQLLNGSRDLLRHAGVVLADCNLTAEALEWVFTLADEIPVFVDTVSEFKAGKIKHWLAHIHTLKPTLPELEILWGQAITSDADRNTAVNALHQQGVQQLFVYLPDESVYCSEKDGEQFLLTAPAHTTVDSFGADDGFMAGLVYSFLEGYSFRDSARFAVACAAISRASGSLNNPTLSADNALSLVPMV
UniProt P28904: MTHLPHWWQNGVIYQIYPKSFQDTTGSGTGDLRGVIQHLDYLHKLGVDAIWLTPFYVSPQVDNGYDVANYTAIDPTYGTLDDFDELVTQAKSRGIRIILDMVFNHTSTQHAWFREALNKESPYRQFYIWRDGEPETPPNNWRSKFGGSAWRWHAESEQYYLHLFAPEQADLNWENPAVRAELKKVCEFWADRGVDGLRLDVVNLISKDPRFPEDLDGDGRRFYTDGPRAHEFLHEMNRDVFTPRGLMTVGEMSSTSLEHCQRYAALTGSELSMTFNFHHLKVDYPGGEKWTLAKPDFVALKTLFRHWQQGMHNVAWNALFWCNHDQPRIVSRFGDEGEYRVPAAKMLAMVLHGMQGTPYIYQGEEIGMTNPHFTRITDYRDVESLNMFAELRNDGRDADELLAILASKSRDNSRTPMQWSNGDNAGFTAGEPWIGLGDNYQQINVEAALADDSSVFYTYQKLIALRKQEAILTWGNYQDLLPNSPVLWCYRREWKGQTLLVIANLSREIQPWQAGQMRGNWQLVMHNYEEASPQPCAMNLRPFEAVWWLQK
UniProt P31554: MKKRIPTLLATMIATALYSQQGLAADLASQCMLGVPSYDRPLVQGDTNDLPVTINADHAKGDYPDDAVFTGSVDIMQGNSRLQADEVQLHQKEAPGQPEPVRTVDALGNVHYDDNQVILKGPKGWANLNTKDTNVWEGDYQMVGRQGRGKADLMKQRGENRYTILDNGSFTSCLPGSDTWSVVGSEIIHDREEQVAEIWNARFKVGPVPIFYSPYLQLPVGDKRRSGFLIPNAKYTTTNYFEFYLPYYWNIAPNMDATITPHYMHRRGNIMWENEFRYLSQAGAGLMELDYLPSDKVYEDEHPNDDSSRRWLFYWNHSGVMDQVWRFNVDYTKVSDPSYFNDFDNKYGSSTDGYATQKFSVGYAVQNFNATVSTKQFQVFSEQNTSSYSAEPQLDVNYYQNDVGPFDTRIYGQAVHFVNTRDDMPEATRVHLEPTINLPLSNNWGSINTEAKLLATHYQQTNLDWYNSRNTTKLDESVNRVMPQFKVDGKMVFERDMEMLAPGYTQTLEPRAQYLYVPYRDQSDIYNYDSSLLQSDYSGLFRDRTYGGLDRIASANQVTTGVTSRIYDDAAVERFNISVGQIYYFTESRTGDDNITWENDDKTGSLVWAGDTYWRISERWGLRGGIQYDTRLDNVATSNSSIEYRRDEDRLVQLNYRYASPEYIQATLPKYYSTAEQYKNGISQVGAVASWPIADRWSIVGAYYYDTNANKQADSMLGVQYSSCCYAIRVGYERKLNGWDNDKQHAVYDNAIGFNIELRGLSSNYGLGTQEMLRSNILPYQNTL
UniProt P24252: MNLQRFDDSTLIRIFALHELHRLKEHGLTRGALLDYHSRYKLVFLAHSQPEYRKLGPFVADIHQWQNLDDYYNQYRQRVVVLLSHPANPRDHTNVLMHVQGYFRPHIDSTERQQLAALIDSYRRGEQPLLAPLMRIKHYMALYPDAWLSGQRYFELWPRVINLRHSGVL
UniProt P33593: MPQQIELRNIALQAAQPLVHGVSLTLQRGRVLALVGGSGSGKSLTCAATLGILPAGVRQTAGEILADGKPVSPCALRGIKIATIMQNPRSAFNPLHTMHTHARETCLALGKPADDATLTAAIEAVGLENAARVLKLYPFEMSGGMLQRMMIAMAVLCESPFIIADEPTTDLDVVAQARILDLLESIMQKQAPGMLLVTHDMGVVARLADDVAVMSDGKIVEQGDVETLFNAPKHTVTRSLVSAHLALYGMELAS
UniProt P26458: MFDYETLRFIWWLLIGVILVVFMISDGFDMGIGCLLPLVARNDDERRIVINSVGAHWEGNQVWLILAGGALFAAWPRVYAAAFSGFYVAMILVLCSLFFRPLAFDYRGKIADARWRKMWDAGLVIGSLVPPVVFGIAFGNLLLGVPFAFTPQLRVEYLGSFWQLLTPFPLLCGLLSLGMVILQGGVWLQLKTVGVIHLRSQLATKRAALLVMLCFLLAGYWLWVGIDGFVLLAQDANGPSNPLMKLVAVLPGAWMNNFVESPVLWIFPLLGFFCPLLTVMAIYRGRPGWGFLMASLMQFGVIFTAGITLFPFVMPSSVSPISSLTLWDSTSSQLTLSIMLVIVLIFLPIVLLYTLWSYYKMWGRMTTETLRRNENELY

The list shows a part of the results. Most values lie at the level of the controls, where differences are scatter.

Compound in the assay: CC1(C)S[C@@H]2[C@H](NC(=O)[C@H](N)c3ccccc3)C(=O)N2[C@H]1C(=O)O [ampicillin]
The experiment in a line: log2 fold change of tryptic peptide abundance, ligand vs vehicle (limited proteolysis) (log2 ratio); higher = more trypsin-susceptible (destabilized). The conditions noted are these: ligand concentration: 10 uM; sample: E. coli crude lysate.
For “UniProt P31808 (peptide sequence: TGMTFDAQPGRK, peptide start residue: 236)”, the log2 fold change was 0.43.

As for “UniProt P28911 (peptide sequence: ILNFGHGK, peptide start residue: 120)”, the log2 fold change is -0.197.

Consider “UniProt P30014 (peptide sequence: AIMVAHNANFDHSFMMAAAER, peptide start residue: 115)”, for which the log2 fold change was -0.0608.

In the case of “UniProt P27111 (peptide sequence: LTDAGEVWR, peptide start residue: 57)”, the log2 fold change is -0.104.

Consider “UniProt P29131 (peptide sequence: AADAPKPTAEKK, peptide start residue: 232)”, for which the log2 fold change stood at 0.491.

Regarding “UniProt P31545 (peptide sequence: FGLAPQMPK, peptide start residue: 147)”, the log2 fold change was found to be 0.478.

In the case of “UniProt P27300 (peptide sequence: TDAPVAVSPVR, peptide start residue: 117)”, the log2 fold change stood at 0.0622.

In the case of “UniProt P28912 (peptide sequence: LDVVMNEDDCK, peptide start residue: 313)”, the log2 fold change was -0.783.

In the case of “UniProt P31060 (peptide sequence: RGSGETIWDIK, peptide start residue: 325)”, the log2 fold change is -0.42.

Regarding “UniProt P33354 (peptide sequence: IQFASIGATTKEDAAK, peptide start residue: 61)”, the log2 fold change was determined as 0.0234.

For the target “UniProt P33230 (peptide sequence: LINFNCEK, peptide start residue: 51)”, the log2 fold change is -0.122.

For the target “UniProt P24192 (peptide sequence: IVYSPMDALK, peptide start residue: 121)”, the log2 fold change was 0.119.

For “UniProt P27862 (peptide sequence: FITMLAHTDGVEAAK, peptide start residue: 22)”, the log2 fold change is -0.0383.

In the case of “UniProt P33362 (peptide sequence: ADALPAFEK, peptide start residue: 172)”, the log2 fold change came out at 0.368.

“UniProt P28916 (peptide sequence: DVIAIDGKIHR, peptide start residue: 104)”: the log2 fold change is 0.381.

Take “UniProt P32684 (peptide sequence: GMSAGVPILGTVTK, peptide start residue: 152)”: the log2 fold change amounted to 0.285.

For “UniProt P30958 (peptide sequence: NLAELHIGQPVVHLEHGVGR, peptide start residue: 473)”, the log2 fold change stood at 0.355.

Regarding “UniProt P32703 (peptide sequence: AATAEVAIVAIQK, peptide start residue: 440)”, the log2 fold change is -0.123.

Turning to “UniProt P33594 (peptide sequence: AVDLDDSVLDK, peptide start residue: 137)”, the log2 fold change is -0.224.

With “UniProt P24180 (peptide sequence: SGDQVIVSGLQK, peptide start residue: 354)”, the log2 fold change was 0.316.

“UniProt P32141 (peptide sequence: YTINDITR, peptide start residue: 4)”: the log2 fold change was -0.24.

Regarding “UniProt P32677 (peptide sequence: SQALFEAIR, peptide start residue: 167)”, the log2 fold change worked out at 0.266.

In the case of “UniProt P33020 (peptide sequence: FAVACAAISR, peptide start residue: 331)”, the log2 fold change came to 0.257.

For “UniProt P25396 (peptide sequence: AVLMKAEDKE, peptide start residue: 321)”, the log2 fold change is 0.299.

As to “UniProt P28904 (peptide sequence: GQTLLVIANLSR, peptide start residue: 496)”, the log2 fold change is 0.283.

Consider “UniProt P27241 (peptide sequence: LQDISAEESKDMTRK, peptide start residue: 256)”, for which the log2 fold change amounted to 0.556.

For “UniProt P31554 (peptide sequence: RGNIMWENEFR, peptide start residue: 267)”, the log2 fold change was -0.233.

Regarding “UniProt P24252 (peptide sequence: FDDSTLIR, peptide start residue: 6)”, the log2 fold change came out at 0.313.

With “UniProt P30015 (peptide sequence: DQVIVTPAPGR, peptide start residue: 603)”, the log2 fold change was -0.397.

For “UniProt P33593 (peptide sequence: IATIMQNPR, peptide start residue: 81)”, the log2 fold change was -0.131.

In the case of “UniProt P26458 (peptide sequence: RNENELY, peptide start residue: 372)”, the log2 fold change turned out to be 0.0274.
